Out of some 53,000 sequences screened, about 3,700 (7%) were called active.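 Rule for the calls: active = gene knockdowns whose robust z-score for IL-1 alpha signal is at least 2 or at most -2, so actives lie on both sides; inactive = the rest.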 The list shows a part of the results.
Experiment: Components of the Cytosolic LPS Sensing Pathway: Gene Identification via Genome-wide siRNA Screen;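 note: robust z of the log signal after scaling to non-targeting control siRNA wells of the plate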
Conditions: RAW264.7 macrophages, IL-1a HTRF, actives lie on both sides, screened at 100 nM (by protocol), cells primed 5 h with Pam3CSK4 first
In short: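 RAW264.7; siRNA 100 nM final, RNAiMAX, 48h 37 degrees C; Pam3CSK4 5 h; LipidA + TransIT-TKO 24 h; IL-1a HTRF; CellTiter-Glo viability; robust z vs negative-control median.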

Row | Sequence | z-score
1 | GCCAGUACAUUGUCCAUGATT against Znf41-ps | inactive: -0.269
2 | GGUCAUUCCAGCAAGGGUATT against D130079A08Rik | inactive: 1.43
3 | GGAGCAUCUCUCCAGAUUGTT against Igsf9 | inactive: 0.567
4 | GCCAUUACUAUGAUUAUCCTT against Itgb1 | inactive: -1.39
5 | GCAGUUAGGUGUCGUAUAUTT against Lrpprc | inactive: 0.894
6 | GGAGCAUCUCAAACCUUCATT against Lancl3 | active: -3.8
7 | GCGAAUAGGAUCCAGCUAUTT against Sin3b | inactive: 0.792
8 | GCGGGAUUGGUCAUUCCACTT against Mrpl45 | active: 2.97
9 | GCUAGGAUUUCAGCAUAUATT against Adra1a | inactive: 0.29
10 | GGCAAAAUGUAUGGUAGAATT against Tead1 | inactive: -0.326
11 | GGUACUCAUAAAACAUGAATT against Ticam2 | inactive: -1.04
12 | GGCAGCAUUGCAAUUUCUATT against Urb2 | inactive: -0.735
13 | GGGCCACUGCCAAAUACUATT against 2510009E07Rik | active: 3.33
14 | GGAUUUGAGUGGUAAUGAATT against Tm2d1 | active: -2.2
15 | GGGUUGACCACUAUUUCUGTT against Olfr1338 | inactive: -1.06
16 | GGCAAUUGUCUCAUUCUGATT against Olfr631 | inactive: 0.806
17 | GGAGAUCAAUGAGAAGAUCTT against Akap3 | inactive: 0.652
18 | GGGACCUACUUUGUGGCUCTT against Tmem72 | inactive: -0.642
19 | GCUGAGAACACAACAGCUUTT against Ap5s1 | inactive: -1.12
20 | GGGCAAAACAGAAAUUCAATT against Sypl | inactive: 0.449
21 | GUGUUUUAGUGCGAGUCCUTT against Klrb1a | inactive: 0.309
22 | GGUCUCCCUUUUCAAUCGCTT against Rbpjl | inactive: -0.613

Row | Sequence | z-score
23 | CCCUGGAGUAAACUCAAAUTT against Onecut2 | inactive: 1.15
24 | GGACCUCAGAGAAGUGCAGTT against Ssbp4 | inactive: -0.308
25 | GGCUUAAUUGUUUGUGUGATT against Slc18a2 | inactive: -0.0175
26 | GGGAAAAGUAUCCUCUGUUTT against Olfr877 | inactive: -0.968
27 | GGUGUGAUGAAAGUUUUAGTT against Rell1 | inactive: 1.05
28 | GGACAUCAACGACAACAAUTT against Pcdhgc3 | inactive: 0.35
29 | CGGUCACAUCUCUACUGCATT against Tas2r138 | inactive: -0.833
30 | GGCGCAAGCAAAGAAACAUTT against Pbx3 | inactive: 0.00735
31 | GGGAUUGACAUUGGAUGGGTT against Gabarap | inactive: -0.67
32 | GGAAAUCAGAAUUCCAAAATT against Cntn6 | inactive: 1.56
33 | GGGAAGGGUGAUGCAGAUCTT against Prkcq | inactive: -1.06
34 | GCCCAGUACGAAGAAAUCATT against Dkk4 | inactive: -0.346
35 | GCGACCAUGACAAACACAATT against Brd7 | inactive: -0.651
36 | CCAGUAGGACUAGCAACACTT against Gast | inactive: -0.275
37 | CGACUGUCAGAUUACAACATT against Ubl4a | inactive: 0.0955
38 | CCGCUGGUGUGAUCACAAUTT against Slc5a2 | inactive: 0.0431
39 | GGCUGGAAAGGAGGAUACATT against Fbxl19 | inactive: -0.747
40 | CCUAGACAAUACUUGCCUGTT against Gpr180 | inactive: 0.873
41 | GGAUCACUGCUUUUACCACTT against Adam19 | inactive: 0.567
42 | GGAUCUUGAAGCCAAAUACTT against Ccdc127 | active: 2.56
43 | CCGUGUUUAAAGACAGUCCTT against Sun2 | inactive: -0.27
44 | GGAGAACUGUGUACGAUGGTT against Fam102a | inactive: -0.257

Row | Sequence | z-score
45 | CCACUGUAAAAGAUUUGGCTT against A730045E13Rik | inactive: 0.234
46 | CUCCUAUGGAACAUCUCCATT against Ndufs6 | inactive: 1
47 | GCAAGGCGCAUAAUGGGAGTT against Alox5ap | inactive: -1.41
48 | GGCCAGUCCAAAGACCAUCTT against Hsd3b7 | inactive: 1.95
49 | GGGAGUCUACACAUUAUAUTT against Ceacam10 | inactive: -0.484
50 | GGAUGAUCAAGACAAGCAGTT against Nobox | inactive: -0.763
51 | GGCUGGAAGAUGACCUGCATT against Tnni3k | inactive: 1.82
52 | GCAACAAUUGAGCAAUUCATT against Bag1 | inactive: -1.21
53 | GCAGCUUAGCCCAAAGAUCTT against Gstm6 | inactive: -0.62
54 | GCCAGAAGUGAAAAUCGAATT against Fkbp14 | inactive: 0.509
55 | CGGAAACCUUGCACAAUAUTT against Blcap | inactive: 0.35
56 | CCACCACAGCUGAAGUCAGTT against Fen1 | inactive: -1.08
57 | GGAGGAUAAGGAUGUCUCATT against Cfap69 | inactive: -1.14
58 | GGCUAAAUGAGCAAAAUCUTT against Bptf | inactive: -0.907
59 | GCAGCGAAAGGAUUGACAATT against Elovl5 | inactive: -0.395
60 | GCUUCCUGUGUCUAUUUAUTT against Tyw3 | inactive: 0.353
61 | GGAAGAGUUUAUGAUCCUCTT against Esrrb | inactive: 0.0523
62 | CCAAUCAGACACCUACAAGTT against Myo1f | inactive: 1.19
63 | GGAAAGUUUGCACUGUAAATT against Tiam2 | inactive: -0.207
64 | GGACUGUUUGGAUUGCAUATT against Dock7 | inactive: 0.891
65 | GCCUUUCUCGUUCCUAUAGTT against Plgrkt | active: -2.42
66 | CGCAGAAAGAAAUAGCAAUTT against B2m | inactive: -0.0651

Row | Sequence | z-score
67 | CCCAUAUUCUACACAUUCUTT against Gadd45gip1 | inactive: -0.246
68 | GGUGGUGUAAUAGCUAAGATT against Hspa12b | inactive: 0.000794
69 | CCAAUGUGGAUGAAUCGAATT against Pdcd11 | inactive: 0.529
70 | GCCACAGUCCAAAUCUGCATT against Odr4 | inactive: -0.751
71 | CCUGUCGUUCCUCCUUACATT against Sec11a | inactive: -1.29
72 | GCCUCGAGGACAAAACAUCTT against Amacr | inactive: -0.549
73 | GGUCCUGGAAUCUCAAAAUTT against Entpd1 | inactive: -0.506
74 | GCGAAACACAUAAUGAGUCTT against Ncaph | inactive: -0.211
75 | UGCUGUGGUCACUCCCAUGTT against Olfr457 | active: -2.04
76 | GCCAGUGAUUAGUGUUUAUTT against Vps37a | inactive: 0.53
77 | GGUAUAUGGAACCAUGGGATT against Psmb9 | inactive: -0.565
78 | GGAGUGACUCCUACAAAAUTT against Ms4a4b | active: -2.01
79 | GGAUGUGCGGAAGUUCAAATT against Acap3 | inactive: 1.82
80 | GCAGCAAUAUAAGGACAGUTT against Grin2b | inactive: 0.367
81 | GGAAUGUAUCCAGGACUUCTT against Brd4 | active: -2.46
82 | GGUCCAUUGGGAGUUUGAGTT against Slc2a6 | active: 3.14
83 | GGUGUUUGUUCGGAAGCUCTT against Pes1 | inactive: -0.345
84 | GGUACUUUAUAGGAACAGUTT against Zbtb41 | inactive: -0.973
85 | GGAAGUGCUACUUUCUGGGTT against Tmem178 | inactive: 1.74
86 | GGACUUACAGCUAAACAACTT against Qk | inactive: 0.427
87 | GGAGCUGGAGAGAUGUUAGTT against Anapc16 | inactive: -0.104
88 | GGUUGCCUUUCUGUCGUUCTT against Olfr558 | inactive: -1.83

Row | Sequence | z-score
89 | CCACUUGAACCAUGUAUUUTT against Skint2 | inactive: 1.5
90 | GGACCUGACCAGAAGAGCUTT against Acot3 | inactive: -0.928
91 | GCGCAGAUGGAUCCUAACATT against Tnfsf11 | inactive: -0.699
92 | GAUACAGAAUGUCUCAUCCTT against Olfr1128 | inactive: 0.307
93 | CCAGAAAUAAAAGACAUCGTT against Cox18 | inactive: 1.35
94 | CCUUACCCUGUUAUACAAGTT against Hirip3 | active: 2.69
95 | GGCCUGUGAGUGUGACAAATT against Pla2g2c | inactive: -1.32
96 | GGACGAUUCCCAGUUUCUGTT against Phf1 | inactive: 1.25
97 | GCACAUAUCACGCUACCUGTT against Lrrc75b | inactive: -0.0605
98 | GGUUCACUCAACUCAACAATT against Spaca7 | inactive: -1.01
99 | GCCCAUUGUAUGACUGCCGTT against Gfra2 | active: 3.21
100 | CCAGAAUUGAACUUCAAGUTT against 2610008E11Rik | inactive: -0.00302
101 | GGUCUUACUCCAGUCUGCCTT against Rufy1 | inactive: 0.536
102 | CCUAGAACUUAAAUGGACATT against Ube2d2b | inactive: 0.135
103 | GGAGCUCAAAGACAAAGAATT against Ccdc178 | inactive: -1.85
104 | CGAUUUAUUGGAGGCGCACTT against Glrx2 | inactive: -0.632
105 | CGAGGAGAAUUUGUAAUGATT against Etfrf1 | inactive: -0.554
106 | GGACUCUCAAUGAUGAAUATT against Map7d3 | inactive: 1.85

— PubChem BioAssay AID1508600 (Functional Genomics Laboratory (NCATS/FGL), 2020)
